Values quoted from earlier work as cited in patent US10582707B2, “Antimicrobial antibacterial and spore germination inhibiting activity from an avocado extract enriched in bioactive compounds” (priority 2010, dated 2020).
For some of these results: For at least one compound, name, drawing or mass did not settle the structure. Some of these results come from one statement about several compounds together. Some compounds share one range, which may span the group rather than tell each member.

How the values were obtained:
[1] = molecular target: acetyl CoA carboxylase (ACC); details: value range for the three compounds; cited from earlier work
[2] = tested on: nitric oxide (NO) generation; details: in vitro, cell culture; cited from earlier work

| SMILES | IC50 [1] [µM] | IC50 [2] [µM] |
| --- | --- | --- |
| CCCCC/C=C\C/C=C\CCCCC/C=C/C(=O)C[C@@H](O)COC(C)=O (single isomer, unassigned) [Compound 7] | 4 to 9.4 |  |
| C=CCCCCCCCCCCC[C@H](O)C[C@H](O)COC(C)=O [Compound 3, (2S, 4S)-1-acetoxy-2,4-dihydroxy-n-heptadeca-16-ene] | 4 to 9.4 |  |
| CCCCC/C=C\C/C=C\CCCCCCCC(=O)C[C@@H](O)COC(C)=O [Compound 9B, (R, 12Z, 15Z)-1-acetoxy-2-hydroxy-4-oxo-heneicosa-12,15-diene] | 4 to 9.4 |  |
| CC/C=C\C/C=C\C/C=C\C/C=C\C/C=C\C/C=C\CCC(=O)O [DHA, docosahexaenoic acid] |  | 4.5 |
